Laboratory results from patent US20190388522A1.
Results are given in words; binding and its absence hold for the method and conditions named. Some binding calls cover weakened binding; strength is not graded here.

Sequences of proteins named here, by UniProt entry; tags and fusion partners are left off. Residues count along the entry.
UniProt P24055, residues 33-292: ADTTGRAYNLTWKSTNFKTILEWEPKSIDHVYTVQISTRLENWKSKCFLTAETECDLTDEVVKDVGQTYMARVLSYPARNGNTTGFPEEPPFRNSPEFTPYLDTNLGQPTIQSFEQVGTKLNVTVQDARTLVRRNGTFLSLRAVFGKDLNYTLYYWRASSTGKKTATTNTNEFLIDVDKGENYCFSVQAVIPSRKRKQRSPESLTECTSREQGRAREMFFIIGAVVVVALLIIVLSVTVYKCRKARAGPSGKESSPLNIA
UniProt P08709, residues 61-466: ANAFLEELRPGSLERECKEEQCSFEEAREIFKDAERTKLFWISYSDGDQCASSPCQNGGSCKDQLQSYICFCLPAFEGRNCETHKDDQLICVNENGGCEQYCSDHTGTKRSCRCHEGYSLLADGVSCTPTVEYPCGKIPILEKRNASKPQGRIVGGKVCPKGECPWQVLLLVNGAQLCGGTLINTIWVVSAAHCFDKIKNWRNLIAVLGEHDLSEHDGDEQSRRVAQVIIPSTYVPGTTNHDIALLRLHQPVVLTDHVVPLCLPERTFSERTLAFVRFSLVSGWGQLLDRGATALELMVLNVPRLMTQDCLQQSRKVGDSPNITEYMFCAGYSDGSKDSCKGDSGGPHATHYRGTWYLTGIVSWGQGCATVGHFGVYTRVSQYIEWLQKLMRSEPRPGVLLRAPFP

Molecular target: Lipidated rabbit tissue factor (rabbit) (UniProt P24055)
Assay: SPR (Biacore), lipidated TF on chip

binding: binds
Substance: Human Factor VIIa (from UniProt P08709 61-466) (enzyme)
